In article doi:10.1101/2023.08.21.554162:
Results are given in words; binding and its absence hold for the method and conditions named. For some of these results: Binding seen in cells or lysates may run through a third protein. Some binding calls cover weakened binding; strength is not graded here. Where a sequence is shown, tags or fusion partners need not be part of it.

Amino acid sequences for entries named in this document (tags omitted).
UniProt Q96NA2: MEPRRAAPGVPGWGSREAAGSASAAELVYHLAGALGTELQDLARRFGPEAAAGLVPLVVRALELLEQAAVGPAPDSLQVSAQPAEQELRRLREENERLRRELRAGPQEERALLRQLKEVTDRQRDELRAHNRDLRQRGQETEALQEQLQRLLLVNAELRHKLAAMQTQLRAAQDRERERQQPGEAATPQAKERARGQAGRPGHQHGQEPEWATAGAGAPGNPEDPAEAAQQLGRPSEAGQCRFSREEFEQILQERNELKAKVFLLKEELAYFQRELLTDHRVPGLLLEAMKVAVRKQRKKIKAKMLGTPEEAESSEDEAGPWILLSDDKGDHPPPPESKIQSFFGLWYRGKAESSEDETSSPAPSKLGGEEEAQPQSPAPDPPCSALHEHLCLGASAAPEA
UniProt P62491: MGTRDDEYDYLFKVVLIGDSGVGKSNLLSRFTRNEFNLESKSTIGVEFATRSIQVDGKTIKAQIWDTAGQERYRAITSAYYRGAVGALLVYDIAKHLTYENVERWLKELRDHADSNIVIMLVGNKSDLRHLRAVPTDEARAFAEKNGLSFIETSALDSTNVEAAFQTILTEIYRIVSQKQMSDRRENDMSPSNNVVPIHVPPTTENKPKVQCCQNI
UniProt Q92930: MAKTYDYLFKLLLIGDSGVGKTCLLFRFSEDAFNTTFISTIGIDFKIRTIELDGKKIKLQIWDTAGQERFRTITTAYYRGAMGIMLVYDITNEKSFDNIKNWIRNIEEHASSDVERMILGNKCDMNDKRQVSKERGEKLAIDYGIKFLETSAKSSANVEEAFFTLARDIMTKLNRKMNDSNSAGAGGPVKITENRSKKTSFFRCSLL
UniProt P61006: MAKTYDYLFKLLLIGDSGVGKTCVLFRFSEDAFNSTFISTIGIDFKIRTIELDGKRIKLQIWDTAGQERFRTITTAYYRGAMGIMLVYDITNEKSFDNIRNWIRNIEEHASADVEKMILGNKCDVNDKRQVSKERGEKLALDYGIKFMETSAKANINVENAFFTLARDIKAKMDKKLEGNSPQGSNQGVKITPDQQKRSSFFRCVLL

T1: mito-mScarlet-DENND6A (human) (UniProt Q8IWF6)
T1 sequence: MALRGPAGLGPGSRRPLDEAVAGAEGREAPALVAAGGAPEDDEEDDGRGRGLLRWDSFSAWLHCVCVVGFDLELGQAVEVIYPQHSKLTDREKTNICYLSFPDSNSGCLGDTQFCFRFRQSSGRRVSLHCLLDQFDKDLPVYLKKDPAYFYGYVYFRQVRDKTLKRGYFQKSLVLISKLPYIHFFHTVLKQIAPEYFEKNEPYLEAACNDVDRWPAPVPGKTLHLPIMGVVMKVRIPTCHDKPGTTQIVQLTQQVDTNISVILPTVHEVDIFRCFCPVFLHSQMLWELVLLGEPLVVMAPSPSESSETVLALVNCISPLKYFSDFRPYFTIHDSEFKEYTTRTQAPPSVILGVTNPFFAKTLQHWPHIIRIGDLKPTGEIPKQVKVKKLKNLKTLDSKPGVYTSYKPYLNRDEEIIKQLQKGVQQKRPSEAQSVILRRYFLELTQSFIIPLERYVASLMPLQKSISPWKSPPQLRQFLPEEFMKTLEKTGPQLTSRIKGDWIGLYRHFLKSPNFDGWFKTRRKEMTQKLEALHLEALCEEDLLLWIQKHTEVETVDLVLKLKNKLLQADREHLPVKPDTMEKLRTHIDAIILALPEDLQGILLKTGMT

T2: GST-Rab34-T66N (UniProt Q9BZG1)
T2 sequence: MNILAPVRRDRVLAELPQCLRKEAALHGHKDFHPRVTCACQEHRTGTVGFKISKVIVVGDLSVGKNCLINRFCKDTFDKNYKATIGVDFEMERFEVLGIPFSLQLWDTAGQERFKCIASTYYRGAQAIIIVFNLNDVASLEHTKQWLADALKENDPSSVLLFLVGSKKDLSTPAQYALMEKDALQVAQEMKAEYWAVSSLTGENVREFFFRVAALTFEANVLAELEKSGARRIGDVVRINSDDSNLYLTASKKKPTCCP


Assays:
[1] = biological target: T1, mito-mScarlet-DENND6A (human); assay: mitochondrial recruitment assay in cells
GST-Rab34-T66N = biological target: T2, GST-Rab34-T66N; assay: pull-down
T7-RILP = T7-RILP (UniProt Q96NA2); assay: pull-down

| Molecule | binding [1] | binding (GST-Rab34-T66N) | binding (T7-RILP) |
| --- | --- | --- | --- |
| GFP-Rab11A (from UniProt P62491 1-216) | binds | – | – |
| GFP-Rab8B (from UniProt Q92930 1-207) | binds | – | – |
| GFP-Rab8A (from UniProt P61006 1-207) | binds | – | – |
| DENND6A-GFP (protein, UniProt Q8IWF6 1-608) MALRGPAGLGPGSRRPLDEAVAGAEGREAPALVAAGGAPEDDEEDDGRGRGLLRWDSFSAWLHCVCVVGFDLELGQAVEVIYPQHSKLTDREKTNICYLSFPDSNSGCLGDTQFCFRFRQSSGRRVSLHCLLDQFDKDLPVYLKKDPAYFYGYVYFRQVRDKTLKRGYFQKSLVLISKLPYIHFFHTVLKQIAPEYFEKNEPYLEAACNDVDRWPAPVPGKTLHLPIMGVVMKVRIPTCHDKPGTTQIVQLTQQVDTNISVILPTVHEVDIFRCFCPVFLHSQMLWELVLLGEPLVVMAPSPSESSETVLALVNCISPLKYFSDFRPYFTIHDSEFKEYTTRTQAPPSVILGVTNPFFAKTLQHWPHIIRIGDLKPTGEIPKQVKVKKLKNLKTLDSKPGVYTSYKPYLNRDEEIIKQLQKGVQQKRPSEAQSVILRRYFLELTQSFIIPLERYVASLMPLQKSISPWKSPPQLRQFLPEEFMKTLEKTGPQLTSRIKGDWIGLYRHFLKSPNFDGWFKTRRKEMTQKLEALHLEALCEEDLLLWIQKHTEVETVDLVLKLKNKLLQADREHLPVKPDTMEKLRTHIDAIILALPEDLQGILLKTGMT | – | binds | binds |
| GFP-Rab4B (protein, UniProt P61018 1-213) MAETYDFLFKFLVIGSAGTGKSCLLHQFIENKFKQDSNHTIGVEFGSRVVNVGGKTVKLQIWDTAGQERFRSVTRSYYRGAAGALLVYDITSRETYNSLAAWLTDARTLASPNIVVILCGNKKDLDPEREVTFLEASRFAQENELMFLETSALTGENVEEAFLKCARTILNKIDSGELDPERMGSGIQYGDASLRQLRQPRSAQAVAPQPCGC | binds | – | – |
| GFP-Rab19 (protein, UniProt A4D1S5 1-217) MHFSSSARAADENFDYLFKIILIGDSNVGKTCVVQHFKSGVYTETQQNTIGVDFTVRSLDIDGKKVKMQVWDTAGQERFRTITQSYYRSAHAAIIAYDLTRRSTFESIPHWIHEIEKYGAANVVIMLIGNKCDLWEKRHVLFEDACTLAEKYGLLAVLETSAKESKNIEEVFVLMAKELIARNSLHLYGESALNGLPLDSSPVLMAQGPSEKTHCTC | binds | – | – |
| GFP-Rab22A (protein, UniProt Q9UL26 1-194) MALRELKVCLLGDTGVGKSSIVWRFVEDSFDPNINPTIGASFMTKTVQYQNELHKFLIWDTAGQERFRALAPMYYRGSAAAIIVYDITKEETFSTLKNWVKELRQHGPPNIVVAIAGNKCDLIDVREVMERDAKDYADSIHAIFVETSAKNAININELFIEISRRIPSTDANLPSGGKGFKLRRQPSEPKRSCC | binds | – | – |
| GFP-Rab22B (protein, UniProt Q13636 1-195) MMAIRELKVCLLGDTGVGKSSIVCRFVQDHFDHNISPTIGASFMTKTVPCGNELHKFLIWDTAGQERFHSLAPMYYRGSAAAVIVYDITKQDSFYTLKKWVKELKEHGPENIVMAIAGNKCDLSDIREVPLKDAKEYAESIGAIVVETSAKNAINIEELFQGISRQIPPLDPHENGNNGTIKVEKPTMQASRRCC | binds | – | – |
| GFP-Rab25 (protein, UniProt P57735 1-213) MGNGTEEDYNFVFKVVLIGESGVGKTNLLSRFTRNEFSHDSRTTIGVEFSTRTVMLGTAAVKAQIWDTAGLERYRAITSAYYRGAVGALLVFDLTKHQTYAVVERWLKELYDHAEATIVVMLVGNKSDLSQAREVPTEEARMFAENNGLLFLETSALDSTNVELAFETVLKEIFAKVSKQRQNSIRTNAITLGSAQAGQEPGPGEKRACCISL | binds | – | – |
| GFP-Rab30 (protein, UniProt Q15771 1-203) MSMEDYDFLFKIVLIGNAGVGKTCLVRRFTQGLFPPGQGATIGVDFMIKTVEINGEKVKLQIWDTAGQERFRSITQSYYRSANALILTYDITCEESFRCLPEWLREIEQYASNKVITVLVGNKIDLAERREVSQQRAEEFSEAQDMYYLETSAKESDNVEKLFLDLACRLISEARQNTLVNNVSSPLPGEGKSISYLTCCNFN | binds | – | – |
| GFP-Rab32 (protein, UniProt Q13637 1-225) MAGGGAGDPGLGAAAAPAPETREHLFKVLVIGELGVGKTSIIKRYVHQLFSQHYRATIGVDFALKVLNWDSRTLVRLQLWDIAGQERFGNMTRVYYKEAVGAFVVFDISRSSTFEAVLKWKSDLDSKVHLPNGSPIPAVLLANKCDQNKDSSQSPSQVDQFCKEHGFAGWFETSAKDNINIEEAARFLVEKILVNHQSFPNEENDVDKIKLDQETLRAENKSQCC | binds | – | – |
| GFP-Rab34 (protein, UniProt Q9BZG1 1-259) MNILAPVRRDRVLAELPQCLRKEAALHGHKDFHPRVTCACQEHRTGTVGFKISKVIVVGDLSVGKTCLINRFCKDTFDKNYKATIGVDFEMERFEVLGIPFSLQLWDTAGQERFKCIASTYYRGAQAIIIVFNLNDVASLEHTKQWLADALKENDPSSVLLFLVGSKKDLSTPAQYALMEKDALQVAQEMKAEYWAVSSLTGENVREFFFRVAALTFEANVLAELEKSGARRIGDVVRINSDDSNLYLTASKKKPTCCP | binds | – | – |
| GFP-Rab39A (protein, UniProt Q14964 1-217) METIWIYQFRLIVIGDSTVGKSCLLHRFTQGRFPGLRSPACDPTVGVDFFSRLLEIEPGKRIKLQLWDTAGQERFRSITRSYYRNSVGGFLVFDITNRRSFEHVKDWLEEAKMYVQPFRIVFLLVGHKCDLASQRQVTREEAEKLSADCGMKYIETSAKDATNVEESFTILTRDIYELIKKGEICIQDGWEGVKSGFVPNTVHSSEEAVKPRKECFC | binds | – | – |
| GFP-Rab43 (protein, UniProt Q86YS6 1-212) MAGPGPGPGDPDEQYDFLFKLVLVGDASVGKTCVVQRFKTGAFSERQGSTIGVDFTMKTLEIQGKRVKLQIWDTAGQERFRTITQSYYRSANGAILAYDITKRSSFLSVPHWIEDVRKYAGSNIVQLLIGNKSDLSELREVSLAEAQSLAEHYDILCAIETSAKDSSNVEEAFLRVATELIMRHGGPLFSEKSPDHIQLNSKDIGEGWGCGC | binds | – | – |
| Rab34 (endogenous) (protein, UniProt Q9BZG1 1-259) MNILAPVRRDRVLAELPQCLRKEAALHGHKDFHPRVTCACQEHRTGTVGFKISKVIVVGDLSVGKTCLINRFCKDTFDKNYKATIGVDFEMERFEVLGIPFSLQLWDTAGQERFKCIASTYYRGAQAIIIVFNLNDVASLEHTKQWLADALKENDPSSVLLFLVGSKKDLSTPAQYALMEKDALQVAQEMKAEYWAVSSLTGENVREFFFRVAALTFEANVLAELEKSGARRIGDVVRINSDDSNLYLTASKKKPTCCP | – | – | binds |
| GFP-Rab3B (protein, UniProt P20337 1-219) MASVTDGKTGVKDASDQNFDYMFKLLIIGNSSVGKTSFLFRYADDTFTPAFVSTVGIDFKVKTVYRHEKRVKLQIWDTAGQERYRTITTAYYRGAMGFILMYDITNEESFNAVQDWATQIKTYSWDNAQVILVGNKCDMEEERVVPTEKGQLLAEQLGFDFFEASAKENISVRQAFERLVDAICDKMSDSLDTDPSMLGSSKNTRLSDTPPLLQQNCSC | binds | – | – |
| GFP-Rab3C (protein, UniProt Q96E17 1-227) MRHEAPMQMASAQDARYGQKDSSDQNFDYMFKLLIIGNSSVGKTSFLFRYADDSFTSAFVSTVGIDFKVKTVFKNEKRIKLQIWDTAGQERYRTITTAYYRGAMGFILMYDITNEESFNAVQDWSTQIKTYSWDNAQVILVGNKCDMEDERVISTERGQHLGEQLGFEFFETSAKDNINVKQTFERLVDIICDKMSESLETDPAITAAKQNTRLKETPPPPQPNCAC | binds | – | – |
| GFP-Rab3D (protein, UniProt O95716 1-219) MASAGDTQAGPRDAADQNFDYMFKLLLIGNSSVGKTSFLFRYADDSFTPAFVSTVGIDFKVKTVYRHDKRIKLQIWDTAGQERYRTITTAYYRGAMGFLLMYDIANQESFAAVQDWATQIKTYSWDNAQVILVGNKCDLEDERVVPAEDGRRLADDLGFEFFEASAKENINVKQVFERLVDVICEKMNESLEPSSSSGSNGKGPAVGDAPAPQPSSCSC | binds | – | – |
